# From patent US20030055065A1, “Tricyclic amide and urea compounds useful for inhibition of G-protein function and for treatment of proliferative diseases” (priority 1993, published 2003)
# Tested on: Ras-CVLS processing in COS monkey kidney cells
# Assay: COS cell assay: Ras-CVLS processing (Western blot)
# Format: cell-based
# Conditions: read-out: Inhibition of Ras Processing IC50
smiles,measurement,value
O=C(Cc1ccncc1)N1CCC(=C2c3ccc(Cl)cc3C=Cc3cccnc32)CC1 [Example 307],IC50,4.6 µM and 850 nM

# Not every entry of the source has a single result; some have several. This list holds those alone. The source may hold further records. Results that share an entry seem to repeat one measurement (runs, samples, wells or individuals).
